Experimental data taken from PubChem BioAssay AID504444 (National Center for Advancing Translational Sciences (NCATS), 2011).
Several values for one entry are separate records, joined by “and”; a condition that tells them apart may be missing. Identical values can stand only once. Hit rate of the full screen: of about 360,000 compounds, about 7,500 (2.1%) were called active. Inconclusive means that the source gave no clear call. Such entries were picked first, then a sample of the others. The call rests on the fitted dose curve; in most records, active means well fitted inhibition curve with a large enough effect; inconclusive means small, poorly fitted or top-dose-only effect, or effect the other way; inactive means flat fitted curve, though single readings scatter. Potencies beside an inconclusive call are fits to weak or partial responses and may not hold up.
On the % scale 0 is the no-effect control and ±100 the full control effect; potency means the concentration at half of the fitted maximal effect.

Test: Nrf2 qHTS screen for inhibitors; further: nearly all actives have a fitted effect of over 60% in size
Conditions: A549 ARE-Fluc reporter, luciferase luminescence, 18-24 h; activity change, negative = inhibition: at 46 µM (top of the series)
Procedure, shortened: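 In this cell-based qHTS, ARE-driven firefly luciferase in A549 cells reports Nrf2 activity; the luminescent signal after BugLite lysis is the measured value, with a prior CellTiter-Fluor read for cell health.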
With `Cc1ccc(NC(=O)CC(C)S(=O)(=O)c2ccc3c(c2)NC(=O)CO3)c(Cl)c1` (configuration not stated) the Potency was inconclusive: 29.1 µM [activator, single point] and inconclusive: 13 µM [activator, partial curve]. With `CC(C)c1ccc2oc(-c3ccc(NC(=O)c4cccc(Br)c4)cc3)nc2c1` the Potency was inconclusive: 13 µM [falling, partial curve]. In the case of `O=C(CCn1nc(-c2ccc(Cl)cc2)c2ccccc2c1=O)NN1CCOCC1`, the Potency was inconclusive: 1.3 µM [falling, partial curve, poor fit]. With `Cc1[nH]n(-c2ccccc2)c(=O)c1C(=O)c1ccccc1` the Potency was inconclusive: 29.1 µM [falling, single point]. With `Cn1cccc1C(=O)OCC(=O)N1CCc2ccccc21` the Potency was inconclusive: 20.6 µM [activator, partial curve, poor fit]. For `CC(=O)Nc1sc(N/N=C\c2ccccc2F)nc1-c1cccs1`, the Potency was inconclusive: 10.3 µM [activator, partial curve]. In the case of `C=CCNC(=O)CCCCC(=O)NCC=C`, the Potency was inconclusive: 0.0461 µM [falling, full curve, poor fit]. In the case of `Cc1ccc(S(=O)(=O)NCC(=O)N(CC(=O)NCc2ccco2)Cc2ccco2)cc1`, the “activity change, negative = inhibition” value was inactive: 9.21%. In the case of `COc1ccc(-c2cc3ccc(F)cc3cn2)cc1`, the Potency was inconclusive: 5.8 µM [activator, partial curve]. For `O=C(Nc1ccc(S(=O)(=O)N2CCOCC2)cc1)C1CCN(S(=O)(=O)c2ccc(Cl)cc2)CC1`, the Potency was inconclusive: 32.6 µM [falling, single point]. With `CC(=O)COc1ccc2c(-c3ccccc3)cc(=O)oc2c1C` the Potency was inconclusive: 29.1 µM [falling, single point]. In the case of `COC(=O)CCCNC(=O)c1ccc2[nH]c(C)c(C)c2c1`, the Potency was inconclusive: 2.91 µM [activator, partial curve]. In the case of `O=C(NNC(=O)c1cccnc1SCc1cccc([N+](=O)[O-])c1)c1ccc(F)cc1`, the Potency was inconclusive: 16.4 µM [falling, single point]. For `CCOC(=O)N1CCC(NC(=O)C2CCN(C(=O)c3cc4oc(C)cc4n3Cc3c(F)cccc3Cl)CC2)CC1`, the Potency was inconclusive: 18.4 µM [falling, single point]. In the case of `Cc1ncsc1C(=O)N1CCCC(CNS(=O)(=O)c2cccs2)C1` (configuration not stated), the “activity change, negative = inhibition” value was inactive: 8.32%. With `Cc1csc(=O)n1CCC(=O)OC(C)C(=O)NCc1ccccc1` (configuration not stated) the “activity change, negative = inhibition” value was inactive: 10.5%. With `Cc1cc(Nc2cccc(Cl)c2)nc(NCc2ccccc2)n1` the Potency was inconclusive: 29.1 µM [falling, single point]. For `O=[N+]([O-])c1cccc(S(=O)(=O)c2ccc(NCCOCCO)c([N+](=O)[O-])c2)c1`, the Potency was inconclusive: 18.4 µM [activator, partial curve]. For `Fc1ccc(-c2csc3ncnc(N4CCN(c5ccccc5)CC4)c23)cc1`, the Potency was inconclusive: 29.1 µM [falling, single point]. With `COc1ccc(CCNC(=O)c2ccc3c(c2)OCO3)cc1` the Potency was inconclusive: 11.6 µM [activator, partial curve, poor fit]. With `Cc1ccc(-c2cc(-c3cccc(F)c3)n[nH]2)c(O)c1` the Potency was inconclusive: 9.2 µM [activator, partial curve]. In the case of `CC(C)C[C@H](NC(=O)c1[nH]cnc1C(=O)N[C@@H](Cc1ccccc1)C(=O)OC(C)(C)C)C(=O)OCc1ccccc1`, the Potency was inconclusive: 18.4 µM [falling, single point]. In the case of `CC(Nc1ccc(Br)cc1)C(=O)Nc1cccc(S(=O)(=O)N2CCOCC2)c1` (configuration not stated), the Potency was inconclusive: 11.6 µM [falling, partial curve, poor fit]. In the case of `CCOC(=O)c1[nH]cnc1C(=O)Nc1cccc(N)n1`, the “activity change, negative = inhibition” value was inactive: 1.06%. In the case of `Cc1csc(SCC(=O)Nc2cc(C(N)=O)cc(C(N)=O)c2)n1`, the Potency was inconclusive: 5.17 µM [falling, single point]. With `CC(CC(=O)Nc1cccc(Cl)c1)c1ccccc1` (configuration not stated) the Potency was inconclusive: 29.1 µM [falling, single point]. In the case of `O=C(Nc1cccc(Oc2ccc(C(=O)O)c(C(=O)O)c2)c1)c1ccc(-c2ccccc2)cc1`, the Potency was active: 16.4 µM. For `O=C(CSc1ncn[nH]1)Nc1nc(-c2ccccc2)ns1`, the Potency was inconclusive: 0.82 µM [activator, partial curve, poor fit]. In the case of `O=C1OCCC1Sc1nnc(-c2ccc3c(c2)OCO3)o1` (configuration not stated), the Potency was inconclusive: 16.4 µM [falling, single point]. In the case of `Cc1nnc(N(C(=O)c2cnccn2)c2ccccc2)s1`, the “activity change, negative = inhibition” value was inactive: 2.57%. With `Cc1ccc(S(=O)(=O)N(C)c2ccc(OC(=O)CN3C(=O)NC4(CCCC4)C3=O)cc2)cc1C` the “activity change, negative = inhibition” value was inactive: -22.3%. For `Clc1cccc(CNc2cc(-c3ccccc3)nc3nncn23)c1`, the Potency was inconclusive: 18.4 µM [falling, single point]. For `COc1ccc(C2C(C(=O)N3CCN(c4ccccc4)CC3)c3ccccc3C(=O)N2C)cc1` (configuration not stated), the “activity change, negative = inhibition” value was inactive: -2.56%. For `CC(SCC(=O)Nc1ccccc1Br)c1nc2ccccc2c(=O)[nH]1` (configuration not stated), the Potency was inconclusive: 6.51 µM [activator, single point]. In the case of `Cc1cc(C)cc(Oc2coc3cc(OCC(=O)NC4CCCCC4)ccc3c2=O)c1`, the “activity change, negative = inhibition” value was inactive: 14.2%. With `NS(=O)(=O)c1cccc(NC(=O)CSc2nc3ccccc3n2-c2ccccc2)c1` the Potency was inconclusive: 29.1 µM [falling, single point]. In the case of `O=C(c1ccco1)N1CCN(c2c([N+](=O)[O-])nn(-c3cccc(Cl)c3)[n+]2[O-])CC1`, the “activity change, negative = inhibition” value was inactive: 29.6%. For `COc1ccc(C(C)NC(=O)c2ccc([N+](=O)[O-])cc2)cc1OC` (configuration not stated), the Potency was inconclusive: 16.4 µM [falling, partial curve, poor fit]. In the case of `COc1ccc(S(=O)(=O)N2CCCC(C(=O)NCC3CCCO3)C2)cc1OC` (configuration not stated), the “activity change, negative = inhibition” value was inactive: 8.2%. In the case of `Cc1ccc(S(=O)(=O)NC(C)(C)CSc2nncn2C)cc1`, the “activity change, negative = inhibition” value was inactive: 9.5%. With `COC(=O)c1c(NC(C)=O)sc(Cc2ccccc2)c1C` the “activity change, negative = inhibition” value was inactive: -7.69%. In the case of `Cc1cc(N)c(-n2cc3c(c2-c2ccc(Br)cc2)c(=O)n(C)c(=O)n3C)cc1C`, the Potency was inconclusive: 29.1 µM [falling, single point].
